Assay results reported in paper PMC3894558, “Chemical signatures and new drug targets for gametocytocidal drug development” (Scientific Reports, 2014).
Structures can show the parent of a compound that is named as a salt. Where two headings read alike, the source gives them in different places.

What was measured:
[1] = system: P. falciparum 3D7 gametocytes; assay: alamarBlue gametocyte viability assay, strain 3D7; assay type: cell-based, Plasmodium falciparum
[2] = system: P. falciparum HB3 gametocytes; assay: alamarBlue gametocyte viability assay, strain HB3; assay type: cell-based; conditions: Plasmodium falciparum, HB3, strain profiling; 11 concentrations, 1:3 dilution, three times
[3] = system: P. falciparum Dd2 gametocytes; assay: alamarBlue gametocyte viability assay, strain Dd2; assay type: cell-based; conditions: Plasmodium falciparum, DD2, strain profiling; 11 concentrations, 1:3 dilution, three times
[4] = SI Table 3, structure clusters, read-out: Activity against gametocytes IC50

Compound: CN1CCC(=C2c3ccccc3C=Cc3ccccc32)CC1 [Cyproheptadine hydrochloride, reference compound]
- IC50 ([1]; SI Table 3, structure clusters): 3.55 µM

Compound: CN1CCC(=C2c3ccccc3C=Cc3ccccc32)CC1 [Cyproheptadine, reference compound]
- IC50 ([1]; SI Table 3, structure clusters): 35.5 µM

Compound: CN(C)CCCN1c2ccccc2CCc2ccc(Cl)cc21 [Clomipramine hydrochloride]
- IC50 [1, 4]: 3.55 µM

Compound: Clc1ccccc1C(c1ccccc1)(c1ccccc1)n1ccnc1 [Clotrimazole]
- IC50 ([1]; Plasmodium falciparum, 3D7, strain profiling, 11 concentrations, 1:3 dilution, three times, read-out: 3D7-gametocytes IC50): 1.87 µM
- IC50 [2]: 1.48 µM
- IC50 [3]: 1.48 µM

Compound: CN(C)CCCN1c2ccccc2CCc2ccc(Cl)cc21 [Clomipramine]
- IC50 [1, 4]: 35.5 µM
